Results taken from PubChem BioAssay AID240 (DTP/NCI, 2004).
The list is a part of this screen's results and no random one: its compounds were picked by chemical class. Not every dose and run of a compound is shown. T/C: endpoint of the treated group in % of that of the vehicle group. Where survival is the endpoint, the PubChem record calls one and a half times the control and up active, and a quarter to a half above the control has no call in these data; cut-offs in other NCI protocols can differ. Schedule codes are those of the source, read here as Q, the interval in days (D) or hours (H), X, the number of doses. Some entries were tested several times; the results are listed from low to high. Some T/C values are followed by the survivors on the day toxicity was checked, most often the fifth; without a count or a note in brackets, all were alive then.

System: Lymphoma 4 ip in BDF1 mice, median survival
Assay: NCI In Vivo Anticancer Drug Screen. Data for tumor model Lymphoma 4 (intraperitoneal) in B6D2F1 (BDF1) mice
Details: T/C endpoint: median survival time, schedule: Q01DX010 (ip), vehicle: saline, higher T/C = longer survival
Protocol: The antitumor activity of compounds was measured in mice bearing transplantable tumors. Survival or tumor size were measured and the results are expressed as the measurement made in the treated group (T) divided by the measurement made in the vehicle treated control group (C). The tumor model used in this assay is Lymphoma 4 (intraperitoneal) in B6D2F1 (BDF1) mice

Compound: NC1CCCCC1.O=P(O)(N(CCCl)CCCl)N1CC1
- T/C (dose: 1.25 mg/kg/injection): 110 % of control
- T/C (dose: 2.5 mg/kg/injection): 103 and 123 % of control
- T/C (dose: 5.0 mg/kg/injection): 119 and 136 % of control
- T/C (dose: 10.0 mg/kg/injection): 150 [4 of 6 alive] and 173 % of control
- T/C (dose: 20.0 mg/kg/injection): 196 % of control

Compound: CC[C@@H](C)[C@@H]1NC(=O)/C(=C(\C)O)C1=O.c1ccc(CNCCNCc2ccccc2)cc1
- T/C (dose: 10.0 mg/kg/injection): 103 % of control
- T/C (dose: 14.0 mg/kg/injection): 103 % of control
- T/C (dose: 20.0 mg/kg/injection): 103 % of control
- T/C (dose: 30.0 mg/kg/injection): 100 % of control
